According to the supplement of paper PMC5949888:
Most values lie at the floor of the assay. Slopes are relative: functional sequences can read slightly below zero.

system: Saccharomyces cerevisiae PS128 hsf1 delta, HSF1(1-493) fusion; assay: growth estimate (transactivation domain function in HSF1 fusion, heat-shock survival) (a.u. (slope of normalised read count over time)); higher = stronger growth at 37°C, i.e. more transactivation activity; conditions: library: random library

| Substance | growth estimate |
| --- | --- |
| DYRCQGHMGARSLNWTPVFP | < -0.25 |
| CKSVCLRLYVM | < -0.25 |
| NRCTYVRVMGAWFVHSLIRR | < -0.25 |
| SERVASVMMPFCA | < -0.25 |
| WERVSGRGCIDRSHGTTTLS | < -0.25 |
| FCRLAFFRRSSLLVCGHWHP | < -0.25 |
| SYVLVCSGRTEGGRPTPASS | -0.241 |
| YPGAVICLRPAKVSIRLEEL | < -0.25 |
| EGGISMRGSLFYARDVCVSS | < -0.25 |
| VVT | < -0.25 |
| PPFCGYVIQVGSVAPPYPLH | < -0.25 |
| RRSIQWVSA | < -0.25 |
| MNPSSDGTSDCYYGYKGSRP | < -0.25 |
| HRSLN | < -0.25 |
| LIGI | < -0.25 |
| KLVVLPTFPALMEGFFYHRT | < -0.25 |
| GTTFVRIRHYG | < -0.25 |
| KGKLTPEIQPGHH | < -0.25 |
| WLPVIC | < -0.25 |
| FVTACIHGSDCVCWPVWPRA | < -0.25 |
| QLS | < -0.25 |
| HMGGWR | < -0.25 |
| IPDSIN | < -0.25 |
| PKGLTLPLGDLVGSGQILHP | < -0.253 |
| FTAGLGSTCPVEGPPKHSCG | -0.243 |
| PMSAR | -0.231 |

A different layout for part of the listing above:
Substance	growth estimate
QLS	< -0.25
HMGGWR	< -0.25
IPDSIN	< -0.25
PKGLTLPLGDLVGSGQILHP	< -0.253
FTAGLGSTCPVEGPPKHSCG	-0.243
PMSAR	-0.231

(further entries)

| Substance | growth estimate |
| --- | --- |
| GMSAEFRTFTPWLIIERSHS | < -0.25 |
| GRTQRDC | < -0.25 |
| VIEKCGGRKDRTGNMMRHDT | < -0.25 |
| WTLRP | < -0.25 |
| PLRNVTMLGLLS | < -0.25 |
| HKSGYVICVNISETRRVPLV | < -0.25 |
| TCLVFLYIRERVSRVR | < -0.25 |
| MICTV | < -0.25 |
| VLLYTARTISSG | < -0.25 |
| RSRGGSRSTGHNSRGRLTAL | < -0.25 |
| IVCALGESREGTGFSCACPP | < -0.25 |
| CRYIFLVAFVVKCTAM | < -0.25 |
| RLFRVFWEPSPGMVA | < -0.25 |
| ELTSLADRRRFYLPVTESSP | < -0.25 |
| EDLRTLPLMWPMTGCPSARL | -0.243 |
| PVCYQEFFLMWRQLHRSSLT | -0.2 |
| DRWVGPERLRM | < -0.25 |
| NNSGA | < -0.25 |
| EGGVDVRYDYGPFLGESLSL | 0.0824 |
| CPCAVRHYTATHLQFLNAAV | < -0.25 |
| RCVLSAK | < -0.25 |
| LPPGLWYFPFLLCNCNQHNE | < -0.25 |
| LGAGQSEEVLGRERTEIGRC | < -0.25 |
| TPMGLQTASRSLYLSRLH | -0.242 |
| HFQD | < -0.25 |
| TLAVGNRRGGLCMTILRS | < -0.25 |

Copied from the list:
Entry of HKSGYVICVNISETRRVPLV under growth estimate: < -0.25
Entry of CRYIFLVAFVVKCTAM under growth estimate: < -0.25
Entry of LPPGLWYFPFLLCNCNQHNE under growth estimate: < -0.25

Further results:

| Substance | growth estimate |
| --- | --- |
| WLMRQM | < -0.25 |
| HRVHPTTTIMGYHGLGNCTR | < -0.25 |
| TTGSV | < -0.25 |
| RTLGRVRSHGSRMRCRQGMV | < -0.25 |
| QGKFAKVLVAVVDGGVRRYV | < -0.25 |
| AGPKGVKPPDGPCEVRINLT | -0.231 |
| TRVPVSASTS | < -0.25 |
| CSDTHIYGNWRTPSVACVNL | < -0.25 |
| TWGNRCYVSLKRRNRPSSMG | < -0.25 |
| RHTFPEAYAFEFSAQLGRTV | < -0.25 |
| IRTMESGKTNTSAYNQRISA | < -0.25 |
| GRRLGFEAGPSPRSEIIV | < -0.25 |
| SRLELSGMLPDR | < -0.25 |
| VPESFGCDVISRK | < -0.25 |
| SDGLRFQLRSELGADSACSE | < -0.25 |
| QNALSRHSPPCNDFPVEYTN | < -0.25 |
| RRSPKCARLD | < -0.25 |
| LKVLVYDRDRTSPHHGY | < -0.25 |
| RSLCISPVRSGTPYGRRILP | < -0.25 |
| LGLHQKVRSPVTVNLGKYDV | -0.208 |
| GLRGHVGHREQPLLA | < -0.25 |
| NVGLFGSRRRKYSEGI | < -0.25 |
| LERLWPGVSKDNPVWQWSIL | < -0.25 |
| ETRGLSI | < -0.25 |
| LGGCIYMPGSFKTRMGERR | 0.066 |
| IDM | < -0.25 |

| Substance | growth estimate |
| --- | --- |
| GTVPRVGLASLDICVHDVSA | < -0.25 |
| VPNVMRRLDTWSRVHSPFGG | < -0.25 |
| RPRSGPSRDRARWKS | < -0.25 |
| VCIHGIKEKEMLKSRES | < -0.25 |
| NLFQMAWRGLVTTG | < -0.25 |
| FNVASGNAI | < -0.25 |
| LVGTQRCRFKLIRRGATTSA | -0.245 |
| LADLIVMLLCGITQSALPFA | < -0.25 |
| KCNEDIGSTVYMS | < -0.25 |
| LSLYRPAAPNFGR | < -0.25 |
| LDIRFKNKLVNLAL | < -0.25 |
| NLQLRPIESPACRLRGQGST | < -0.25 |
| ATITNYGSGAERFWNSVLRT | < -0.25 |
| DCCLDWVIVRNSNRGRQSKF | < -0.25 |
| AHFAPTPGQNQSGSAEDGVC | < -0.25 |
| PASLWGIFHLP | < -0.25 |
| WCDLVVAVYRKFELSLDFLK | < -0.25 |
| NEGCQGW | < -0.25 |
| HTTAQWLDSLGLAGTTLFAR | < -0.25 |
| KGVSWP | 0.066 |
| IVLFRVMPRWQSTAAHDGIQ | < -0.25 |
| KPPRVTLPHSGSP | < -0.25 |
| FAYVRVRLTRP | < -0.25 |
| EVVIDYFHGELMDLSRQVQL | 0.213 |
| PDLHIEGFLPQNAMPGISTL | < -0.25 |
| SQSLHSSDGLELCVRTQKGR | < -0.25 |

| Substance | growth estimate |
| --- | --- |
| PRLHILCALPATTVSQALSR | < -0.25 |
| CRGPGLPLHRQTTPTRGSSE | < -0.25 |
| NVPAPVSSVRFPACLFETGS | < -0.25 |
| NCHHVVLQSAWVGPGIGVNR | < -0.25 |
| LPCCKVPPKLVGYRRSFTGR | < -0.25 |
| VDGLSLRKTSTRCYDS | < -0.25 |
| IAARIEQRGPISGYDSGTQM | < -0.25 |
| SRRSADESSPYTAGVLDQA | < -0.25 |
| LWCEMAV | < -0.25 |
| WVRMQSDQIAGRGNDLGLFG | < -0.25 |
| RSESSPYLWRLTCRTGPVLL | < -0.25 |
| IGLL | < -0.25 |
| PSRRASHLGCTLRLTRRKLF | < -0.25 |
| TSGVKSRHPNPIGEPPTTPR | < -0.25 |
| NEG | < -0.25 |
| NVFNGVESLKTDLY | < -0.25 |
| LQPPSVRRQLVCSEGLGRLR | < -0.25 |
| SRNAFFPGERERGCLKTARG | < -0.25 |
| VTI | < -0.25 |
| PRRFNPGRHTHNSSGRRDAH | < -0.25 |
| VQGPVVRKTFGIIS | < -0.25 |
| ESVG | < -0.25 |
| NMRGWSLHGDEVKNGSSVMV | < -0.25 |
| FSPDHCSCRLRSTKFYLGPK | < -0.25 |
| AQLFRLSTISGWQGDSSRLY | < -0.25 |
| HHPALVIPSREPR | < -0.25 |

Some of the entries above, set out differently:
LDIRFKNKLVNLAL
  growth estimate: < -0.25
NLQLRPIESPACRLRGQGST
  growth estimate: < -0.25

More results follow.

| Substance | growth estimate |
| --- | --- |
| HGGHS | < -0.25 |
| SWCGGAGAAGKFALRGRAQA | < -0.25 |
| NISRPVFAKRIVRSHRTLFA | < -0.25 |
| WSCKRTAPRRLLIPTKSKPP | < -0.25 |
| HVWTCNYWHFSNALHTKHFP | < -0.25 |
| PGNSTRTQVELGRVSLADDA | < -0.25 |
| HVNDNITP | < -0.25 |
| GTFVFISNLVYQVALFRIDR | < -0.25 |
| IRLCPRPAANPICTFLST | < -0.25 |
| TGISNPGWWHATAVSLHTTF | < -0.25 |
| WHTCVA | < -0.25 |
| GCARAAITL | < -0.25 |
| GYGSYLHSQVSRIYRPFVYL | < -0.25 |
| NQVKLTLVRPLIDQETWTRN | < -0.25 |
| TYQIALLFDLAR | < -0.25 |
| MSRDVPGIACTTEWPSHGCR | < -0.25 |
| TVVVSDLGGSDQLETAIPTL | < -0.25 |
| VAD | < -0.25 |
| HSVNEPAQIITFQL | < -0.25 |
| TGCVIGIITWSWATPEFDTV | < -0.253 |
| VEGF | < -0.25 |
| LGYWSGASPGSRRGGWERSA | < -0.25 |
| PRGLVTLGGSHRFRLNVRPV | < -0.25 |
| KLEPGARSPDSLCLNRFLSG | < -0.25 |
| ESAI | -0.239 |
